# From patent publication US8921321B2, “Therapeutic strategies for prevention and treatment of alzheimer's disease” (Isis Innovation Ltd., priority 2001, dated 2014)
# At least one structure is not confirmed: it was looked up by name or label, or the drawing left a doubt.
# Experiments:
# Assay type in all cases: cell-based, human
# [1] = tested on: AD-type hyperphosphorylated tau protein; assay: ELISA of AD-type hyperphosphorylated tau (AT8) in SH-SY5Y cell lysates; details: for Expression of AD-type hyperphosphorylated tau: drug alone, FIG. 6a; for Tau phosphorylation (AD-type hyperphosphorylated tau): drug pre-treatment, then oxidative stress (120 μM H2O2), FIG. 6b
# Experimental: (§1) SH-SY5Y cells were treated with three candidate agents: rapamycin (Rapa) at 100 ng/ml, doxorubicin (Doxo) at 1 μM and Dexrazoxane (DexRaz) at 200 μM and then tested one day (d1) and two days (d2) after treatment for the following 7 parameters, which are indicative of cell cycle defects and “AD-type” pathology:
# (§2) In order to evaluate the effect of drug pre-treatment is protecting against the effects of oxidative stress cells were subjected to oxidative stress (by treatment with 120 μM H2O2) in the absence of drug treatment and after treatment with rapamycin or dexrazoxane, and then tested for the same parameters. Results are shown in FIGS. 1-7, panel b (FIG. 1b, FIG. 2b, FIG. 3b, FIG. 4b, FIG. 5b, FIG. 6b, FIG. 7b).
# (§3) Finally, cells were treated with doxorubicin after treatment with rapamycin or dexrazoxane and then tested for the same parameters, to evaluate the effects of combined treatment. Results are shown in FIGS. 1-7, panel c (FIG. 1c, FIG. 2c, FIG. 3c, FIG. 4c, FIG. 5c, FIG. 6c, FIG. 7c).
# (§4) SH-SY5Y human neuroblastoma cells were cultured in Dulbecco's modified Eagle's medium (DMEM)/F12 supplemented with 10% fetal calf serum (FCS, PAA Laboratories, Austria), 2 mM L-glutamine, 100 IU/ml penicillin and 100 μg/ml streptomycin (Gibco) in a humidified incubator at 37° C. and 5% CO2.
# (§5) After 24 h incubation the culture medium was replaced by DMEM/F12 with 10% FCS containing various concentrations of drug. The cells were incubated for another 24 or 48 hours.
# (§6) The cell cultures were repeated in identical conditions in order to analyze cell cycle kinetics by flow cytometry and to study protein expression.
# (§7) The cultures prepared for protein expression assays were harvested after a short wash with cold PBS by scraping. The collected cells were lysed in 150 μl of lysis buffer containing 50 mM Tris-HCl (pH 7.4), 100 mM NaCl, 1 mM EDTA, 0.5% (v/v) Nonidet P-40, 50 mM NaF, 0.2 mM Na3VO4, 20 μg/ml phenylmethylsulfonyl fluoride, and 5 μg/ml leupeptin, and incubated on ice for 30 min. The cell lysate was centrifuged at 14,000 g for 20 min at 4° C. to remove insoluble pellets. Protein concentration was determined by the Bradford assay. ELISA assays were performed using a panel of antibodies. Secondary antibodies (anti rabbit or anti mouse as appropriate) conjugated to horseradish peroxidase were used.
# [2] = tested on: amyloid precursor protein (APP); assay: ELISA of APP expression in SH-SY5Y cell lysates
# Experimental: as §1, §2, §3, §4, §5, §6, §7
# [3] = tested on: AD-type paired helical filament (PHF) tau protein; assay: ELISA of AD-type PHF tau (Tau2) in SH-SY5Y cell lysates; details: for PHF formation (AD-type PHF tau): drug pre-treatment, then oxidative stress (120 μM H2O2), FIG. 7b
# Experimental: as §1, §2, §3, §4, §5, §6, §7
# AD-related proteins = assay: ELISA of AD-related proteins overall (APP, phospho tau, PHF tau) in SH-SY5Y cell lysates
# Experimental: as §1, §2
# Finally, cells were treated with doxorubicin after treatment with rapamycin or dexrazoxane and then tested for the same parameters, to evaluate the effects of combined treatment. Results are shown in FIGS. 1-7, panel c (FIG. 1c, FIG. 2c, FIG. 3c, FIG. 4c, FIG. 5c, FIG. 6c, FIG. 7c). […]
# The cultures prepared for protein expression assays were harvested after a short wash with cold PBS by scraping. […] Protein concentration was determined by the Bradford assay. […]
smiles,measurement,setting,value
CO[C@H]1C[C@@H]2CC[C@@H](C)[C@@](O)(O2)C(=O)C(=O)N2CCCC[C@H]2C(=O)O[C@H]([C@H](C)C[C@@H]2CC[C@@H](O)[C@H](OC)C2)CC(=O)[C@H](C)/C=C(\C)[C@@H](O)[C@@H](OC)C(=O)[C@H](C)C[C@H](C)/C=C/C=C/C=C/1C [rapamycin],Expression of AD-type hyperphosphorylated tau,[1],reducing the hyperphosphorylated tau
same,Expression of AD-type hyperphosphorylated tau,[1]; first day,increased the amount of hyperphosphorylated tau after one day
same,Phospho-tau production,"[1]; drug pre-treatment followed by doxorubicin, FIG. 6c",reduction of phospho tau by rapamycin pre-treatment disappeared after 1 day
same,Tau phosphorylation (AD-type hyperphosphorylated tau),[1]; initial,increased tau phosphorylation
same,Tau phosphorylation (AD-type hyperphosphorylated tau),[1]; later,followed by a decrease of these proteins
same,Expression of APP,"[2]; drug alone, FIG. 5a",small increase in APP production
same,Expression of APP,"[2]; drug alone, FIG. 5a, listed as Rapamycin",slightly increasing APP production
same,APP production,"[2]; drug pre-treatment followed by doxorubicin, FIG. 5c",reduced APP and PHF tau formation that lasted after the cell cycle effects disappeared
same,Expression of APP,"[2]; drug pre-treatment, then oxidative stress (120 μM H2O2), day 2, FIG. 5b",slight increase by day 2
same,Expression of APP,"[2]; drug pre-treatment, then oxidative stress (120 μM H2O2), initial, FIG. 5b",initial APP reduction
same,Expression of AD-type PHF tau,"[3]; drug alone, FIG. 7a",small increase
same,PHF tau formation,"[3]; drug pre-treatment followed by doxorubicin, FIG. 7c",reduced APP and PHF tau formation that lasted after the cell cycle effects disappeared
same,PHF formation (AD-type PHF tau),[3]; initial,increased tau phosphorylation and PHF formation
same,PHF formation (AD-type PHF tau),[3]; later,followed by a decrease of these proteins
same,AD-related protein expression (overall),AD-related proteins; drug alone,reduction of AD-related proteins was maintained
same,AD-related protein expression (overall),"AD-related proteins; drug pre-treatment followed by doxorubicin, summary statement",strong protective effect against the accumulation of AD-related proteins
